Results published in PubChem BioAssay AID248 (DTP/NCI, 2004).
The list does not hold the whole screen: it is rich in T/C values a quarter to a half above the control, in often repeated tests (any T/C) and in doses without a T/C. Other doses and runs of a compound stand elsewhere. T/C: endpoint of the treated group in % of that of the vehicle group. Some entries give survivors of the animals treated and no T/C: the source holds a T/C of zero for them, seemingly a mark for toxic or unscored doses. Some doses without a T/C left all or most animals alive at the check, yet need not have been tolerated: the source hardly ever lists a survival T/C far under the control, and the zero likely stands for such cases as well. Counts of survivors are from the toxicity check (mostly the fifth day) where no day follows; animals may have died later. Schedules are NCI's codes, taken here to give the interval after Q, in days (D) or hours (H), and the number of doses after X. Some entries were tested several times; the values are given in rising order. Some structures stand for samples that the source files as different forms (salt, stereo form or complex); doses refer to the form tested. Marks such as (2×) stand for listed records that agree. For survival time, the PubChem record calls one and a half times the control and up active, and a quarter to a half above the control has no call in these data; cut-offs in other NCI protocols can differ. Some T/C values are followed by the survivors on the day toxicity was checked, most often the fifth; where none is given, no animal had died by that day.

System: L1210 leukemia ip in BDF1 mice, survival T/C
Assay: NCI In Vivo Anticancer Drug Screen. Data for tumor model L1210 Leukemia (intraperitoneal) in B6D2F1 (BDF1) mice
Conditions: T/C endpoint: mean survival time, higher T/C = longer survival
[1] = dose: 400.0 mg/kg/injection, schedule: Q04DX003 (ip), vehicle: saline
[2] = dose: 100.0 mg/kg/injection, schedule: Q04DX002 (ip), vehicle: saline
[3] = dose: 200.0 mg/kg/injection, schedule: Q04DX002 (ip), vehicle: saline
[4] = dose: 400.0 mg/kg/injection, schedule: Q04DX002 (ip), vehicle: saline
[5] = dose: 200.0 mg/kg/injection, schedule: Q01DX001 (ip), vehicle: saline
[6] = dose: 400.0 mg/kg/injection, schedule: Q01DX001 (ip), vehicle: saline
[7] = dose: 300.0 mg/kg/injection, schedule: Q01DX001 (ip), vehicle: saline
[8] = dose: 100.0 mg/kg/injection, schedule: Q04DX002 (ip), vehicle: Klucel (hydroxypropylcellulose) (HPC)
[9] = dose: 200.0 mg/kg/injection, schedule: Q04DX003 (ip), vehicle: saline
[10] = dose: 400.0 mg/kg/injection, schedule: Q04DX003 (ip), vehicle: saline with Tween-80
[11] = dose: 100.0 mg/kg/injection, schedule: Q01DX001 (ip), vehicle: saline

With O=C(CNC(=O)c1ccc(C(=O)NCC(=O)Nc2ccc(C3=NCCCN3)cc2)cc1)Nc1ccc(C2=NCCCN2)cc1 the T/C (dose: 5.0 mg/kg/injection, schedule: Q01DX009 (ip), vehicle: saline) was 133 % of control, the T/C (dose: 5.0 mg/kg/injection, schedule: Q01DX015 (ip), vehicle: methylcellulose (MC)) was 149 % of control and the T/C (dose: 10.0 mg/kg/injection, schedule: Q01DX015 (ip), vehicle: methylcellulose (MC)) was 129 % of control. The T/C (dose: 20.0 mg/kg/injection, schedule: Q01DX009 (ip), vehicle: saline) was 140 % of control, the survivor count (dose: 61.0 mg/kg/injection, schedule: Q01DX015 (ip), vehicle: methylcellulose (MC)) was 0 of 6 and the survivor count (dose: 100.0 mg/kg/injection, schedule: Q01DX001 (ip), vehicle: methylcellulose (MC)) was 2 of 6. For the same compound, the survivor count (dose: 123.0 mg/kg/injection, schedule: Q01DX015 (ip), vehicle: methylcellulose (MC)) was 0 of 6, the survivor count (dose: 200.0 mg/kg/injection, schedule: Q01DX001 (ip), vehicle: methylcellulose (MC)) was 0 of 6 and the survivor count (dose: 246.0 mg/kg/injection, schedule: Q01DX015 (ip), vehicle: methylcellulose (MC)) was 0 of 6.
In the case of C=CCN(CC=C)P(=O)(OCC)OCC, the survivor count [1] is reported as 0 of 6.
NCCNCCN1CC1 was tested, and the survivor count [2] was 0 of 3, the survivor count [3] was 0 of 3 and the survivor count [4] was 0 of 3.
With c1ccc(CSCc2ccccc2)cc1 the survivor count (dose: 100.0 mg/kg/injection, schedule: Q01DX009 (ip), vehicle: Klucel (hydroxypropylcellulose) (HPC)) was 3 of 3.
In the case of c1ccc(CCN2CCN(CCc3ccccn3)CC2)nc1, the survivor count [5] is reported as 1 of 4 and the survivor count [6] is reported as 0 of 4.
C[N+]1(C2CC3CCC2C3=O)CCOCC1 (stereo not drawn) was tested, and the survivor count [7] was 2 of 6.
With CCN1CCCC(Nc2nc(C(Cl)(Cl)Cl)nc3cc(Cl)ccc23)C1 (stereo not drawn) the survivor count (dose: 200.0 mg/kg/injection, schedule: Q01DX009 (ip), vehicle: saline with Tween-80) was 4 of 6 and the survivor count (dose: 400.0 mg/kg/injection, schedule: Q01DX009 (ip), vehicle: saline with Tween-80) was 0 of 6.
In the case of O=C(C[n+]1cccc2ccccc21)c1ccc([N+](=O)[O-])cc1, the survivor count (dose: 200.0 mg/kg/injection, schedule: Q04DX002 (ip), vehicle: saline with Tween-80) is reported as 1 of 3 and the survivor count (dose: 400.0 mg/kg/injection, schedule: Q04DX002 (ip), vehicle: saline with Tween-80) is reported as 0 of 3.
In the case of O=c1scc(-c2ccc(C(F)(F)F)cc2)s1, the survivor count [8] is reported as 0 of 3, the survivor count (dose: 200.0 mg/kg/injection, schedule: Q04DX002 (ip), vehicle: Klucel (hydroxypropylcellulose) (HPC)) is reported as 1 of 3 and the survivor count (dose: 400.0 mg/kg/injection, schedule: Q04DX002 (ip), vehicle: Klucel (hydroxypropylcellulose) (HPC)) is reported as 0 of 3.
c1ccc2c3csccc-3nc2c1 was tested, and the survivor count (dose: 200.0 mg/kg/injection, schedule: Q04DX003 (ip), vehicle: acetone) was 0 of 6 and the survivor count (dose: 400.0 mg/kg/injection, schedule: Q04DX003 (ip), vehicle: acetone) was 0 of 6 (2×).
Cc1c2[n+](cc3ccccc13)C(C)CC(=O)N2 (stereo not drawn) was tested, and the survivor count [7] was 0 of 6.
For Nc1ccc(CSc2ccc(Cl)cc2)cc1, the survivor count (dose: 115.0 mg/kg/injection, schedule: Q01DX009 (ip), vehicle: Klucel (hydroxypropylcellulose) (HPC)) was 2 of 3.
With [Cu+2].[NH-]C(CC(N)=O)C(=O)O.[NH-]C(CC(N)=O)C(=O)O (stereo not drawn) the survivor count (dose: 50.0 mg/kg/injection, schedule: Q01DX009 (ip), vehicle: saline) was 1 of 6, the survivor count (dose: 100.0 mg/kg/injection, schedule: Q04DX003 (ip), vehicle: saline) was 0 of 6 and the survivor count [9] was 0 of 6. For the same compound, the survivor count [1] was 0 of 6.
In the case of CCOC1CC2c3ccccc3C1c1cccc[n+]12 (stereo not drawn), the survivor count (dose: 100.0 mg/kg/injection, schedule: Q01DX009 (ip), vehicle: saline) is reported as 3 of 6 and the survivor count (dose: 115.0 mg/kg/injection, schedule: Q01DX009 (ip), vehicle: saline) is reported as 0 of 6.
With CC(=O)NC(C)(NC(=O)CCl)C(=O)O (stereo not drawn) the survivor count [10] was 5 of 6.
In the case of O=C(O)C1C(c2ccccc2)C2(c3ccccc3)C(=O)C1(c1ccccc1)C(c1ccccc1)=C2c1ccccc1 (stereo not drawn), the survivor count (dose: 100.0 mg/kg/injection, schedule: Q01DX001 (ip), vehicle: saline with Tween-80) is reported as 3 of 3.
For CCNC(C)(C)C(SSSC(c1ccc(Br)cc1)C(C)(C)NCC)c1ccc(Br)cc1 (stereo not drawn), the survivor count (dose: 200.0 mg/kg/injection, schedule: Q01DX009 (ip), vehicle: water) was 2 of 6 and the survivor count (dose: 400.0 mg/kg/injection, schedule: Q01DX009 (ip), vehicle: water) was 0 of 6.
For CCN(CC)CCCC(C)Nc1cccc2c1C(=O)c1ccccc1C2=O (stereo not drawn), the survivor count [3] was 1 of 3 and the survivor count [4] was 0 of 3.
With CC(=O)CC(C)=O.CCCCC(C[C-]=O)N(CC)CC.[Pd+2] (stereo not drawn) the survivor count (dose: 37.5 mg/kg/injection, schedule: Q04DX003 (ip), vehicle: distilled water + Tween-80) was 0 of 6, the survivor count (dose: 75.0 mg/kg/injection, schedule: Q04DX003 (ip), vehicle: distilled water + Tween-80) was 1 of 6 and the survivor count (dose: 150.0 mg/kg/injection, schedule: Q04DX003 (ip), vehicle: distilled water + Tween-80) was 1 of 6.
For C/C=C/CC1(CCCC)C(=O)NC(=O)NC1=O, the survivor count [7] was 3 of 6.
With CCCCOC(=O)CN(C)/N=N/c1nc[nH]c1C(=O)OCC the survivor count (dose: 200.0 mg/kg/injection, schedule: Q01DX001 (ip), vehicle: Klucel (hydroxypropylcellulose) (HPC)) was 2 of 6 and the survivor count (dose: 400.0 mg/kg/injection, schedule: Q01DX001 (ip), vehicle: Klucel (hydroxypropylcellulose) (HPC)) was 0 of 6.
In the case of CC(=O)Oc1ccc(N)cc1OC(C)=O, the survivor count (dose: 75.0 mg/kg/injection, schedule: Q01DX001 (ip), vehicle: steroid suspending solution) is reported as 5 of 6 and the survivor count (dose: 300.0 mg/kg/injection, schedule: Q01DX001 (ip), vehicle: steroid suspending solution) is reported as 2 of 6.
With C1CCCCCC(N2CCCC2)CCCCC1 the survivor count (dose: 50.0 mg/kg/injection, schedule: Q04DX003 (ip), vehicle: saline) was 6 of 6, the survivor count [11] was 2 of 6 and the survivor count [5] was 0 of 6. The survivor count [6] was 0 of 6.
CN(C)CCOc1ccccc1Cc1ccccc1 was tested, and the survivor count [1] was 0 of 4.
In the case of CN(C)C(=S)SC(=S)N(C)C, the survivor count [8] is reported as 3 of 3.
N=C(N)SCc1ccc(Cl)c(Cl)c1 was tested, and the survivor count (dose: 200.0 mg/kg/injection, schedule: Q01DX003 (ip), vehicle: Klucel (hydroxypropylcellulose) (HPC)) was 0 of 6 and the survivor count [1] was 0 of 6.
CNC(=O)C(c1ccccc1)C(O)c1ccccc1 (stereo not drawn) was tested, and the survivor count [6] was 1 of 4.
For CSCCC(C)C, the survivor count [10] was 0 of 6.
NC1=NC(c2ccccc2)N(c2ccccc2)C(N)=N1 (stereo not drawn) was tested, and the survivor count [5] was 1 of 6.
CC1CN1CCCNC(=O)C(=O)NCCCN1CC1C (stereo not drawn) was tested, and the T/C (dose: 25.0 mg/kg/injection, schedule: Q01DX001 (ip), vehicle: saline) was 127 % of control, the T/C (dose: 25.0 mg/kg/injection, schedule: Q04DX003 (ip), vehicle: saline) was 139 % of control and the T/C (dose: 50.0 mg/kg/injection, schedule: Q01DX001 (ip), vehicle: saline) was 134 % of control. For the same compound, the T/C [11] was 132 % of control [5 of 6 alive].
For CCCCCCSC(=N)N, the survivor count [2] was 0 of 3 and 1 of 6, the survivor count [3] was 0 of 3 and 1 of 6 and the survivor count [4] was 0 of 3 and 0 of 6.
In the case of O=C(O)CCCNCc1cc(=O)[nH]c(=O)[nH]1, the survivor count [9] is reported as 1 of 4 and the survivor count [1] is reported as 0 of 4.
CC(C)NNC(=O)c1ccc(Cl)cc1 was tested, and the survivor count (dose: 200.0 mg/kg/injection, schedule: Q01DX009 (ip), vehicle: Klucel (hydroxypropylcellulose) (HPC)) was 5 of 6 and the survivor count (dose: 400.0 mg/kg/injection, schedule: Q01DX009 (ip), vehicle: Klucel (hydroxypropylcellulose) (HPC)) was 3 of 6.
For CCN(CC)c1ccc(NCS(=O)(=O)O)cc1, the survivor count (dose: 200.0 mg/kg/injection, schedule: Q01DX009 (ip), vehicle: saline sonified) was 2 of 6, the survivor count [9] was 5 of 6 and the survivor count [1] was 0 of 6.
